# Source: PMC7819943, “Rice protein-binding microarrays: a tool to detect cis-acting elements near promoter regions in rice”
# Protein sequences, listed by entry. Tags and fused reporters are not part of them.
# UniProt Q0JBA9, entry or part of it: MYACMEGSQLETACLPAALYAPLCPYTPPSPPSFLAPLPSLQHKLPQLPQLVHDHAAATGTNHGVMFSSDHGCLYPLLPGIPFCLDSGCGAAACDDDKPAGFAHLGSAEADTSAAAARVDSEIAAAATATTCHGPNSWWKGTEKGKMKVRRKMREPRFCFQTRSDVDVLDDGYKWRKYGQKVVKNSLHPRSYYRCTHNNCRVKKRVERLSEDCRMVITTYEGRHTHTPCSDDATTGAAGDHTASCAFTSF
# This is one part of the list.
# Molecular target: OsWRKY34 (Oryza sativa, UniProt Q0JBA9 1-250)
# Assay: protein-binding microarray (RPBM); PBS, 2% BSA, 51.3 ng/ul salmon testes DNA, 50 uM zinc acetate, 200 nM TF, 25 C, 1 h; high values mean tight binding
# Settings: protein: recombinant; tags: N-terminal polyhistidine and DsRed monomer fusion (pET32a); label: CyDye5-dUTP incorporated in the synthesized complementary strand; 3' TTTTT single-stranded linker to array surface; dsDNA, one strand shown
# Method in brief: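 A custom Agilent array was converted to double-stranded form by primer extension with Cy5-dUTP and blocked with 2% BSA. Protein at 200 nM in PBS with 2% BSA, salmon testes DNA and 50 µM zinc acetate was applied for 1 h at 25 °C, followed by washing. The proteins were polyhistidine–DsRed N-terminal fusions of transcription factors, expressed in E. coli BL21-CodonPlus and Ni–NTA-purified. The binding signal is per-feature fluorescence intensity (arbitrary units) from an Axon 4000B scanner.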
row,Sequence,binding signal
1,ATTATTTTTTATTTTTTAATAAGCCGTTTTTGTTCTACTACGGAGTCACCTAGTGCAG,9430 fluorescence intensity (a.u.)
2,CTGGTCAGAGTCCCCAACCAAAAGCATTTCTCCTGCCTTCCGGAGTCACCTAGTGCAG,8660 fluorescence intensity (a.u.)
3,CATAACGTTTCCGCTCCTGATCGATCGGCTTCACGCACGCCGGAGTCACCTAGTGCAG,8730 fluorescence intensity (a.u.)
4,GGCGGCGGCGGCGGCGGTGGTGGTGAGGAGGAGGAGGAGGCGGAGTCACCTAGTGCAG,10700 fluorescence intensity (a.u.)
5,CATCATGAACATTGGTTGGATTCCTTGAGAGGTCAGATTCCGGAGTCACCTAGTGCAG,8470 fluorescence intensity (a.u.)
6,AAAACTCTGCTATATATACGTACTCGCCATAGTCAGCGCGCGGAGTCACCTAGTGCAG,8420 fluorescence intensity (a.u.)
7,ACGAATCCAACGCCCTTTGTCATCCACCTCGTGTCGCTCGCGGAGTCACCTAGTGCAG,8620 fluorescence intensity (a.u.)
8,TTGGACAAAATCCATCCGAACTTTGACATTTGCATTTTGGCGGAGTCACCTAGTGCAG,8090 fluorescence intensity (a.u.)
9,CCGGCACCGATTCCTGCCTCCGCCTTTGAATTCCGCCGCGCGGAGTCACCTAGTGCAG,8620 fluorescence intensity (a.u.)
10,CTGCTTTTTTTGATCGATCGGTGAGTTTTCTGAAACACCTCGGAGTCACCTAGTGCAG,13400 fluorescence intensity (a.u.)
11,TTCTGCCTCTCGTTGCCTTCATACTATTTGCTATGTCTTCCGGAGTCACCTAGTGCAG,9510 fluorescence intensity (a.u.)
12,GTGCTGCTTGTTGAAACGTTGAGTAGTTGTCGCTGCCATTCGGAGTCACCTAGTGCAG,8860 fluorescence intensity (a.u.)
13,CAGATCCTTTGTCCGAGCTATCTTCCGAAAAGCTTTTAAACGGAGTCACCTAGTGCAG,10100 fluorescence intensity (a.u.)
14,AGTTATAGGGTAGATGTGTGTCGTGCATGCTGCATACTACCGGAGTCACCTAGTGCAG,9040 fluorescence intensity (a.u.)
15,ATTAAGGGCCTGTTCACTTTGATGCCATTTTCAACCATACCGGAGTCACCTAGTGCAG,9710 fluorescence intensity (a.u.)
16,TAGTGTGTTTCTTGCCGGCGTCTCCATCCACTCTCCTGACCGGAGTCACCTAGTGCAG,9580 fluorescence intensity (a.u.)
17,TTTATCCTTCGACTGTGTTTATCCTTTTTCTGATGTGTTTCGGAGTCACCTAGTGCAG,10700 fluorescence intensity (a.u.)
18,TACACGGCTACACGCTCGGCTCCTGACCCGGCGCCGGCGACGGAGTCACCTAGTGCAG,8630 fluorescence intensity (a.u.)
19,TCCCGTCTCGTCTCCGCTCCTTGCGCCTGCGCCGATCTCCCGGAGTCACCTAGTGCAG,8930 fluorescence intensity (a.u.)
20,AATACTACTCCCTCTATTTCAGGTTATAAGACGTTTTGACCGGAGTCACCTAGTGCAG,9310 fluorescence intensity (a.u.)
21,ACTGCCTCTCCGTTGAATAATTCCTGTAACTGGCATAACACGGAGTCACCTAGTGCAG,8270 fluorescence intensity (a.u.)

row,Sequence,binding signal
1,GTACGTTACTAATCGCAGTTATACTCGCAGCTCATACATTCGGAGTCACCTAGTGCAG,9920 fluorescence intensity (a.u.)
2,TATCACATTTGCGTTTTGCATTTTTTGCACTGCATTTCATCGGAGTCACCTAGTGCAG,11000 fluorescence intensity (a.u.)
3,TTCTTGTATTCTGTTGTGCCTTTTTGGGCTTGCAATTAAGCGGAGTCACCTAGTGCAG,9550 fluorescence intensity (a.u.)
4,TAAGTGAGTCGTCCCATTTCATTTCATCAGCCAATCATCACGGAGTCACCTAGTGCAG,9740 fluorescence intensity (a.u.)
5,AACCCTGTCCACGTCTGCTCGTCGCCATGGCCTCTCGTTCCGGAGTCACCTAGTGCAG,14800 fluorescence intensity (a.u.)
6,CCTGTCCATCTCGTGGCCACAGCTAAGCCGCCAATTCCCACGGAGTCACCTAGTGCAG,9510 fluorescence intensity (a.u.)
7,CCTCGTCAAGTTCTCTTATGGCAATCATACTAGATTATTTCGGAGTCACCTAGTGCAG,9280 fluorescence intensity (a.u.)
8,TGGCCGTCCATTCCCGATCAGAATCCGCTATATACCCTCTCGGAGTCACCTAGTGCAG,8030 fluorescence intensity (a.u.)
9,GGTCGTGTTCAATATTTTCTTGTAGGACATGTCATTCTCACGGAGTCACCTAGTGCAG,12900 fluorescence intensity (a.u.)
10,ATACACAGGTCTTGAGTAGCTCGAAAGCCGTGCAGCTTTTCGGAGTCACCTAGTGCAG,8340 fluorescence intensity (a.u.)
11,AAAAGTTGTGTGTGTATGAAATGTTTGATGTGATGGAAAACGGAGTCACCTAGTGCAG,8340 fluorescence intensity (a.u.)
12,TCGTTTGGTTGGCGGGAGTTTTAAGAGGGATTAGGAGTTTCGGAGTCACCTAGTGCAG,9020 fluorescence intensity (a.u.)
13,GATGAGTCCTCACCTGAGTTTCTTCCGTCCATGGCGGCCGCGGAGTCACCTAGTGCAG,10500 fluorescence intensity (a.u.)
14,ACCTGTAAACTACCGTTGGATAAAAAATAAACGTATGAGACGGAGTCACCTAGTGCAG,63600 fluorescence intensity (a.u.)
15,ATTTTGTAGGAGGTTTATAAGAAGGTCAACATCTTTTTTTCGGAGTCACCTAGTGCAG,9630 fluorescence intensity (a.u.)
16,GCCGTCCCTGCAGCCGCGCGTACGTACGCACGCCGCGATCCGGAGTCACCTAGTGCAG,8210 fluorescence intensity (a.u.)
17,CCCACCCACCCACCCACCACCACGCCACGCCACCACCTCGCGGAGTCACCTAGTGCAG,8190 fluorescence intensity (a.u.)
18,TTTCTCAAATTCAACCCTTTCTCAGTTTCTGTTTTTTTTTCGGAGTCACCTAGTGCAG,8650 fluorescence intensity (a.u.)
19,AAGTTTTTGGGTAGTGCTTTTGCGCGCTTTCTCTTGGCTGCGGAGTCACCTAGTGCAG,8150 fluorescence intensity (a.u.)
20,ATAGTTTGCATTTTTGTTTTCTTCCTAGCTTAACTAAACTCGGAGTCACCTAGTGCAG,9860 fluorescence intensity (a.u.)
21,CTTTTTTGTTGTTCTTTGTGTTGATTTCTTCCTCTGCGAGCGGAGTCACCTAGTGCAG,10600 fluorescence intensity (a.u.)

# Some of the entries above, reformatted.
row	Sequence	binding signal
13	GATGAGTCCTCACCTGAGTTTCTTCCGTCCATGGCGGCCGCGGAGTCACCTAGTGCAG	10500 fluorescence intensity (a.u.)
14	ACCTGTAAACTACCGTTGGATAAAAAATAAACGTATGAGACGGAGTCACCTAGTGCAG	63600 fluorescence intensity (a.u.)
15	ATTTTGTAGGAGGTTTATAAGAAGGTCAACATCTTTTTTTCGGAGTCACCTAGTGCAG	9630 fluorescence intensity (a.u.)
